# Assay results taken from the supplement of paper PMC7858590.
# ± gives the standard deviation of the averaged measurements. Whole data set: some 3,800 compounds, median “cell shape (eccentricity) Z-score vs DMSO control” near 1.1, cut for the lowest 2% near -4.7. The list shows a part of the results. Non-standard residues stand in square brackets, D forms with d. Residues, ends and D or L forms follow the SMILES beside them. ξ: configuration not given here. ξLac(3-iPr) = CC(C)CC(O)C(=O)O; NMeV = CN[CH](C(=O)O)C(C)C; NMeA = CN[CH](C)C(=O)O; βAla = NCCC(=O)O
# System: human monocyte-derived macrophages (M0)
# Experiment: cell shape (eccentricity) Z-score vs DMSO control; higher = more elongated, M2-like morphology
# Details: 20 µM; 24 h; macrophage state: M0 (M-CSF)
row,SMILES,cell shape (Z-score)
1,Cc1[nH]c2ccc(Cl)cc2c1C1=CCNCC1,-1.23
2,C=C(C)[C@H]1Cc2c(ccc3c2O[C@@H]2COc4cc(OC)c(OC)cc4[C@@H]2C3=O)O1,-3.4
3,Cc1c(O)c(C(=O)O)c(O)c2c1[C@H](C)[C@@H](C)OC2=O,0.172
4,CCC(=O)O[C@H]1CCC2C3CCC4=CC(=O)CC[C@]4(C)C3CC[C@@]21C (stereo partly specified),1.77
5,O=C1c2ccccc2C(=O)c2ccccc21,1.99
6,COc1ccc2c(c1)c(CCN1CCOCC1)c(C)n2C(=O)c1cccc(Cl)c1Cl,3.49
7,COc1cc(OC)c2c(c1)O[C@H](c1ccc(OC)c(OC)c1)[C@@H](O)C2,2.63
8,CC=C1CN2C3CC1C1(C(=O)OC)C2CC2(c4ccccc4N(C)C32)C1O (stereo unspecified),-0.509 ± 2.3
9,O=C1CC2OCC=C3CN4CC[C@]56c7ccccc7N1C5[C@H]2[C@H]3CC46 (stereo partly specified),-0.204
10,Oc1ccc2c3c1OC1[C@@H](O)CC[C@@]4(O)[C@@H](C2)N(CC2CCC2)CC[C@]314 (stereo partly specified),-0.423
11,Cc1cccc(C)c1NC1=NCCCS1,-0.715
12,C[C@@H]1O[C@@H](OC2CCC3(C)C4CCC5(C)C(C6=CC(=O)OC6)CCC5(O)C4CC[C@H]3C2)[C@H](O)[C@H](O)[C@H]1O (stereo partly specified),-1.64
13,N#CC(C#N)=NNc1cccc(Cl)c1,1.06
14,COC(=O)C1=COC(C)C2CN3CCC4(C(=O)Nc5ccccc54)C3CC12 (stereo unspecified),3.25
15,O=C(CCCN1CCC2(CC1)C(=O)NCN2c1ccccc1)c1ccc(F)cc1,0.313
16,CNC(C)C(O)c1ccccc1 (stereo unspecified),-0.0152
17,CC(=O)OC1CC[C@@]2(C)C(CCC3C2CC[C@]2(C)C(C4=CC(=O)OC4)C(OC(C)=O)CC32O)C1 (stereo partly specified),-3.57
18,CN(C)[C@@H]1C(=O)C(C(N)=O)C(=O)[C@@]2(O)C(=O)C3C(=O)c4c(O)cccc4[C@](C)(O)[C@H]3C[C@@H]12 (stereo partly specified),-0.502
19,CCOC(=O)c1ncn2c1C1CCCN1C(=O)c1cc(OC)ccc1-2 (stereo unspecified),6.49
20,COc1c(C(C)C)cc2c(c1O)[C@@]1(C(=O)O)CCCC(C)(C)C1CC2 (stereo partly specified),0.403 ± 3
21,C[C@@H]1O[C@@H](O[C@H]2C[C@@H](O)[C@]3(CO)[C@H]4[C@H](O)C[C@]5(C)[C@@H](C6=CC(=O)OC6)CC[C@]5(O)[C@@H]4CC[C@]3(O)C2)[C@H](O)[C@H](O)[C@H]1O,0.03
22,Oc1c(Cl)c(Cl)c(Cl)c(Cl)c1Cl,1.36
23,c1ccc(CCCCN2CCC(c3ccccc3)CC2)cc1,0.721
24,COc1ccc(C[C@H]2NC[C@H](O)[C@H]2OC(C)=O)cc1,2.66

# By substructure, the compounds so far with a halogen
row,SMILES,cell shape (Z-score)
1,Cc1[nH]c2ccc(Cl)cc2c1C1=CCNCC1,-1.23
6,COc1ccc2c(c1)c(CCN1CCOCC1)c(C)n2C(=O)c1cccc(Cl)c1Cl,3.49
13,N#CC(C#N)=NNc1cccc(Cl)c1,1.06
15,O=C(CCCN1CCC2(CC1)C(=O)NCN2c1ccccc1)c1ccc(F)cc1,0.313
22,Oc1c(Cl)c(Cl)c(Cl)c(Cl)c1Cl,1.36

# Continued.

row,SMILES,cell shape (Z-score)
1,C=CCC1(C(C)CCC)C(=O)N=C(S)NC1=O (stereo unspecified),2.85
2,CCC(C)C1NC(=O)C2CCCN2C(=O)C(CC(C)C)OC(=O)CCNC(=O)C(C)N(C)C(=O)C(C(C)C)N(C)C1=O (stereo unspecified) (cyclo([ξLac(3-iPr)]PI[NMeV][NMeA][βAla]); configuration not given here),3.59
3,Cc1nnc2n1-c1sc(CCC(=O)N3CCOCC3)cc1C(c1ccccc1Cl)=NC2,1.51
4,COC12CC(COC(=O)c3cncc(Br)c3)CN(C)C1Cc1cn(C)c3cccc2c13 (stereo unspecified),1.27
5,CN1CCc2cc(O)cc3c2[C@H]1Cc1ccc(O)c(O)c1-3,1.06
6,C(=C\c1ccccc1)/CN1CCN(CCOC(c2ccccc2)c2ccccc2)CC1,-5.62
7,CO[C@]12C[C@@H](COC(=O)c3cncc(Br)c3)CN(C)[C@@H]1Cc1cn(C)c3cccc2c13,-0.607
8,CN(C(=O)Cc1ccc(Cl)c(Cl)c1)[C@H](CN1CCCC1)c1ccccc1,0.788
9,COc1ccc(/C=C/c2cc(O)cc(O)c2)cc1,1.13
10,COC(=O)c1cncn1C(C)c1ccccc1 (stereo unspecified),-2.15
12,O=C(O)COc1cc(Cl)c(Cl)cc1Cl,2.09
13,CCCN(CCC)[C@@H]1CCc2cccc(O)c2C1,1.32
14,CC(CC(C(N)=O)(c1ccccc1)c1ccccc1)N(C)C (stereo unspecified),0.994
15,CN1C(=O)c2ccccc2NC(=O)[C@]12O[C@@H]2c1ccccc1,0.776
16,CN1CC(CNC(=O)OCc2ccccc2)C[C@H]2c3cccc4c3c(cn4C)CC21 (stereo partly specified),1.44
17,c1cncc([C@@H]2CCCCN2)c1,3.61
18,COc1ccc2c(c1OC)C(=O)O[C@@H]2[C@H]1c2cc3c(cc2CCN1C)OCO3,1.85
19,Cc1c(N)nc([C@H](CC(N)=O)NC[C@@H](N)C(N)=O)nc1C(=O)N[C@H](C(=O)N[C@@H](C)[C@H](O)[C@@H](C)C(=O)N[C@@H](C(=O)NCCc1nc(-c2nc(C(=O)NCCC[S+](C)C)cs2)cs1)[C@@H](C)O)C(O[C@H]1O[C@H](CO)[C@H](O)[C@@H](O)[C@H]1O[C@H]1O[C@H](CO)[C@@H](O)[C@H](OC(N)=O)[C@@H]1O)c1c[nH]cn1 (stereo partly specified),0.636
20,FC(F)(F)c1cccc(N2CCNCC2)c1,1.7
21,C=CCN1CC(C(=O)N(CCCN(C)C)C(=O)NCC)CC2c3cccc4[nH]cc(c34)CC21 (stereo unspecified),-1.01
22,C/C=C/c1ccc2c(c1)OCO2,2.7
23,Cc1cc(C(=O)CN2CCCC2)c(C)n1-c1ccc(F)cc1,2.25
24,CC(C)c1cc2c(cc1O)[C@@]1(C)C[C@@H](O)CC(C)(CO)C1CC2 (stereo partly specified),3.19

row,SMILES,cell shape (Z-score)
1,CC(C)(C)NCC(O)c1ccccc1Cl (stereo unspecified),2.94
2,CCCN(CCC)[C@@H]1CCc2c(OC)cccc2[C@@H]1C,4.64
3,CC(C)c1cc2c(cc1O)[C@@]1(C)CCCC(C)(C)[C@@H]1CC2O (stereo partly specified),0.729
4,CN(C)C(=S)SSC(=S)N(C)C,5.26
5,COc1ccc(C(=O)N2CCCC2=O)cc1,2.64
6,CC1(C)CCC[C@]2(C)c3cc(O)c(O)cc3C(=O)CC12 (stereo partly specified),1.44
7,C[N+]12CCC(CC1)C(OC(=O)C(O)(c1ccccc1)c1ccccc1)C2 (stereo unspecified),1.72
8,CC1CCC/C=C\C2CC(O)CC2C(O)/C=C\C(=O)O1 (stereo unspecified),0.397
9,C=CCN1C[C@H](C)N([C@H](c2ccc(C(=O)N(CC)CC)cc2)c2cccc(OC)c2)C[C@H]1C,3.78
10,CC(N)Cc1c[nH]c2ccc(O)cc12 (stereo unspecified),1.41
11,CN1c2ccccc2C(NCCCCCCC(=O)O)c2ccc(Cl)cc2S1(=O)=O (stereo unspecified),0.787
12,C[C@@H]1Cc2c(Cl)cc(C(=O)N[C@@H](Cc3ccccc3)C(=O)O)c(O)c2C(=O)O1,2.05
13,C1CN2CCC1CC2,-0.128
14,CN(C(=O)Cc1ccc(Cl)c(Cl)c1)C(CN1CCCC1)c1cccc(OCC(=O)O)c1 (stereo unspecified),-0.643
15,CCCN(CCC)C1CCc2ccc(O)cc2C1 (stereo unspecified),-0.796
16,CC(C)C(O)(C(=O)OCC1=CCN2CCC(O)C12)C(C)O (stereo unspecified),0.823 ± 2.3
17,C/C=C(\C)C(=O)OC1C(C)=C2C(C1OC(=O)CCCCC)C(C)(OC(C)=O)CC(OC(=O)CCC)C1(O)C2OC(=O)C1(C)O (stereo unspecified),1.67
18,Oc1cc(Cl)ccc1Oc1ccc(Cl)cc1Cl,2.88
19,CC[C@@H](CO)NC(=O)[C@@H]1C=C2c3cccc4c3c(cn4C)C[C@H]2N(C)C1,1.68
20,O=C(O)c1ccc2[nH]cc(CCCCN3CC=C(c4ccccc4)CC3)c2c1,0.151
21,CCCN1CCC[C@@H]2Cc3nc(N)ncc3C[C@H]21,4.21
22,COC1=CC(=O)O[C@@H](CCc2ccc3c(c2)OCO3)C1,-1.18
23,Clc1cccc(N2CCNCC2)c1,3.51
24,O=C(O)C1=CCCN(CCOC(c2ccc(C(F)(F)F)cc2)c2ccc(C(F)(F)F)cc2)C1,1.96

row,SMILES,cell shape (Z-score)
1,NCCc1ccccn1,2.36
2,C[N+]12CC[C@@]34c5ccccc5N5C(=O)CC6OCC=C(C1)[C@H](CC32)[C@@H]6C54 (stereo partly specified),-0.173
3,CC(C)(C)NC[C@H](O)COc1cccc2[nH]c(C#N)cc12,1.39
4,CN1C[C@H](CNC(=O)OCc2ccccc2)C[C@@H]2c3cccc4c3c(cn4C)C[C@H]21,-1.59
5,Cc1ccc2c(c1)C1(CCN(CCc3nc(-c4ccccc4)oc3C)CC1)OC(=O)N2,0.325
6,COc1ccc(Cc2nccc3cc(OC)c(OC)cc23)cc1OC,-1.22
7,Cn1cc(C(=O)C(=O)N[C@H]2CN3CCC2CC3)c2ccccc21,0.679
8,C(=Cc1ccccc1)CN1CCN(CCOC(c2ccccc2)c2ccccc2)CC1,1.98
9,COc1cc([C@@H]2c3cc4c(cc3[C@H](OC(C)=O)[C@H]3COC(=O)[C@H]23)OCO4)cc(OC)c1OC,9.18
10,CN1C(=O)[C@@H](NC(=O)c2cc3ccccc3[nH]2)N=C(c2ccccc2)c2ccccc21,0.677
11,CC(C)(c1ccc(OCC2CO2)cc1)c1ccc(OCC2CO2)cc1 (stereo unspecified),1.24
12,CCNC(=O)C1OC(n2cnc3c(N)ncnc32)C(O)C1O (stereo unspecified),4.21
13,COc1cccc([C@]2(O)CCCC[C@H]2CN(C)C)c1,3.18
14,CC(C)(C)NCC(O)c1cc(Cl)c(N)c(Cl)c1 (stereo unspecified),4.41
15,Cn1c(CCCC(=O)O)nc2cc(N(CCCl)CCCl)ccc21,0.618 ± 1.1
16,COC(=O)C1=CCCN(C)C1,2.09
17,C[C@@H]1O[C@@H](O[C@@H]2C=C3CC[C@@H]4C(C[C@@H](O)[C@]5(C)[C@@H](c6ccc(=O)oc6)CC[C@]45O)[C@@]3(C)CC2)[C@H](O)[C@H](O)[C@H]1O[C@@H]1O[C@H](CO)[C@@H](O)[C@H](O)[C@H]1O (stereo partly specified),-1.17 ± 1.1
18,CCCC[C@@H](C)[C@@H](OC(=O)C[C@@H](CC(=O)O)C(=O)O)[C@H](CC(C)C[C@H](O)CCCC[C@@H](O)C[C@H](O)[C@H](C)N)OC(=O)C[C@@H](CC(=O)O)C(=O)O (stereo partly specified),-4.01
19,CNC(=O)Oc1ccc2c(c1)[C@]1(C)CCN(C)[C@@H]1N2C,1.01
20,COc1ccc(C(=O)c2c(C)n(CCN3CCOCC3)c3cc(I)ccc23)cc1,1.96
21,Oc1ccc2c3c1OC1c4c(c5ccccc5n4Cc4ccccc4)CC4(O)C(C2)N(CC2CC2)CCC314 (stereo unspecified),-0.456
22,NCCc1ccc(O)cc1,1.45
23,C/C(=C/C=C/[C@@H](C)C(=O)O)[C@H]1CN[C@H](C(=O)O)[C@H]1CC(=O)O,1.92
24,COc1cc2c(cc1OC)C13CCN(C)CC4=CCOC5CC(=O)N2C1C5C4CC3=O (stereo unspecified),-1.4

# A draw from above in order of molar mass, low to high.
row,SMILES,cell shape (Z-score)
22,NCCc1ccc(O)cc1,1.45
13,COc1cccc([C@]2(O)CCCC[C@H]2CN(C)C)c1,3.18
3,CC(C)(C)NC[C@H](O)COc1cccc2[nH]c(C#N)cc12,1.39
10,CN1C(=O)[C@@H](NC(=O)c2cc3ccccc3[nH]2)N=C(c2ccccc2)c2ccccc21,0.677
8,C(=Cc1ccccc1)CN1CCN(CCOC(c2ccccc2)c2ccccc2)CC1,1.98
